Laboratory results as given in patent US5856333A, “Substituted camptothecin derivatives and process for their preparation” (Pharmacia & Upjohn S.p.A., priority 1995, dated 1999).
At least one compound was matched to its structure with a doubt left.

Test: E/Z isomerisation of a solution standing at room temperature
Format: physicochemical
Details: 2 weeks

Compound	E/Z isomer mixture obtained on standing
CC[C@@]1(O)C(=O)OCc2c1cc1n(c2=O)Cc2cc3cccc(/C=C(\NC(C)=O)C(=O)OC)c3nc2-1 [Compound 68, (Z)-12-(2-acetylamino-2-methoxycarbonyl-ethenyl)camptothecin]	50/50 mixture of E and Z isomers
CC[C@@]1(O)C(=O)OCc2c1cc1n(c2=O)Cc2cc3c(/C=C(\NC(C)=O)C(=O)OC)cccc3nc2-1 [Compound 4, (Z)-9-(2-acetylamino-2-methoxycarbonyl-ethenyl)camptothecin]	50/50 mixture of E and Z isomers
